Laboratory results taken from patent CN116178551A.
No constants are given. Whether binding was seen depends on the method and setting. Some binding calls cover weakened binding; strength is not graded here. Sequences can lack the tags named with a protein.

Sequences of proteins named here, by UniProt entry; tags and fusion partners are left off. Residues count along the entry.
UniProt P26715, residues 94-233: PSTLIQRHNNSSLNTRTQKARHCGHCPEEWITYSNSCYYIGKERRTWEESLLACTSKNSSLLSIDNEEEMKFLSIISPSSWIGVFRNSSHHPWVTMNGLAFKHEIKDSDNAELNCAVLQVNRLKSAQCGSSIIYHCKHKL

Molecular target: NKG2A抗原(NKG2A蛋白胞外段) (human) (UniProt P26715)
Test: ELISA on coated NKG2A antigen, three-fold dilutions from 50 μg/mL, Goat Anti Human IgG-HRP

B1: 人源化全抗分子HA-1-IgG1 (humanized antibody HA-1) (antibody, V domains shown, not shown: a dimerising Fc or GST)
VH: EVQLVESGGGLVKPGGSLRLSCAASGFTFSDYDMSWVRQAPGKGLEWVSTISSGGSYTYYPDSVKGRFTISRDNAKNSLYLQMNSLRAEDTAVYYCTSPRQVGLRKAFDYWGQGTTVTVSS
VL: DVVMTQSPAFLSVTPGEKVTITCSASSSVSYMYWYQQKPDQAPKLLIKLTSNLASGVPSRFSGSGSGTDFTFTISSLEAEDAATYYCQQWSSNPFTFGQGTKLEIKR
B1 was tested, and the binding was “binds”.

B2: 人源化全抗分子HA-2-IgG1 (humanized antibody HA-2) (antibody, V domains shown, not shown: a dimerising Fc or GST)
VH: EVQLVESGGGLVKPGGSLRLSCAASGFAFSDYDMSWVRQAPGKGLEWVATISSGGSYTYYPDSVKGRFTISRDNAKNSLYLQMNSLRAEDTAVYYCTSPRQVGLRKAFDYWGQGTTVTVSS
VL: DIVVTQSPAFLSVTPGEKVTITCSASSSVSYMYWYQQKPDQAPKLLIKLTSNLASGVPSRFSGSGSGTDFTFTISSLEAEDAATYYCQQWSSNPFTFGQGTKLEIKR
In the case of B2, the binding is reported as “binds”.
